Measured values reported in patent US20070059242A1, “METHODS TO IDENTIFY THERAPEUTIC AGENTS” (priority 2005, published 2007).

Assay: Analysis of patient plasma samples for aldehydes 4a and 5a
Set-up: species or system human
Conditions: cohort A, six of eight endarterectomy patients; endogenous level

Compound: CC(C)CCC[C@@H](C)[C@H]1CCC2C3C(CC[C@@]21C)[C@@]1(C)CC[C@H](O)C[C@@]1(O)[C@@H]3C=O (stereo partly drawn) [5a, 3β-Hydroxy-5β-hydroxy-B-norcholestane-6β-carboxaldehyde]
- amount detected in plasma: 70 to 1690 nM
